Substitutions are numbered along the chain they refer to. Like-named read-outs stand apart in the source and are kept apart here. No constants are given. Whether binding was seen depends on the method and setting. Some binding calls cover weakened binding; strength is not graded here.
T1: GPR20 fragment peptide GLEVPLFHLFARLDEELHGT (human, N-terminally biotinylated and C-terminally amidated)
T1 construct: Captured on streptavidin sensor chips; also called peptide consisting of amino acid positions 29 to 48 of GPR20
T1 peptide: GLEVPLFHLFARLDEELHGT

By UniProt entry, the sequences of proteins in these tests, tags left out. Where a name states a change or a piece, a line headed by the entry shows the natural chain unless it says otherwise.
UniProt Q99678: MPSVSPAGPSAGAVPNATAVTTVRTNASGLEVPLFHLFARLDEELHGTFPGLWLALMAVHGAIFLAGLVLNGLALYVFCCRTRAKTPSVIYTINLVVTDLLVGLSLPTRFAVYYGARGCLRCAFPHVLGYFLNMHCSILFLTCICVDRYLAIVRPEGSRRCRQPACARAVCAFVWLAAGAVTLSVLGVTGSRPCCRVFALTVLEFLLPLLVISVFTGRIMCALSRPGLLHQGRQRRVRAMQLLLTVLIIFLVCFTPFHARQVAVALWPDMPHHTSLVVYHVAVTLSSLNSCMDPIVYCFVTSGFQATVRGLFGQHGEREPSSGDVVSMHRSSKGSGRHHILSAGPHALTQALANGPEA

B1: rabbit type anti-GPR20 antibody OcH1L1 (antibody, V domains shown)
VH: EVQLKESGGGLVKPGGSLKLCCKASGFTFNNYWMTWIRQAPGKGLEWIASITNIDGSSYYASWVNGRFTLSRDNAQSTVCLQLNSLTAADTATYFCTRGSFDYWGQGTLVTVSS
VL: DIVMTQTPSPVSAAVGGTVTINCKASQNVNKYLNWFQQKPGQPPKLLIYNTNNLQTGVPSRFSGSGSGTDYTLTISGVQCDDAATYYCFQHVSWLTFGGGTEVVVKG
notes: CDR-grafted rabbit type form of 04-093; also called OcH01/OcL01
B2: rabbit type anti-GPR20 antibody OcH2L1 (antibody, V domains shown)
VH: B1 VH with C21S, A61P, S62D, W63S, N65K, L70I, V79L, C80Y
VL: B1 VL
notes: CDR-grafted rabbit type form of 04-093; also called OcH02/OcL01
B3: rabbit chimeric anti-GPR20 antibody OcChimera (antibody)
heavy: EVQLVESGGGLVQPGRSLKLSCVASGFTFNNYWMTWIRQAPGKGLEWVASITNIDGSSYYPDSVKGRFTISRDNVKSTLYLQMNSLRSEDTATYYCTRGSFDYWGQGVMVTVSSGQPKAPSVFPLAPCCGDTPSSTVTLGCLVKGYLPEPVTVTWNSGTLTNGVRTFPSVRQSSGLYSLSSVVSVTSSSQPVTCNVAHPATNTKVDKTVAPSTCSKPTCPPPELLGGPSVFIFPPKPKDTLMISRTPEVTCVVVDVSQDDPEVQFTWYINNEQVRTARPPLREQQFNSTIRVVSTLPITHQDWLRGKEFKCKVHNKALPAPIEKTISKARGQPLEPKVYTMGPPREELSSRSVSLTCMINGFYPSDISVEWEKNGKAEDNYKTTPAVLDSDGSYFLYNKLSVPTSEWQRGDVFTCSVMHEALHNHYTQKSISRSPGK
light: DIQMTQSPSVLSASVGDRVTLNCKASQNVNKYLNWFQQKLGEPPKLLIYNTNNLQTGIPSRFSGSGSGTDYTLTISSLQPEDVATYFCFQHVSWLTFGSGTKLEIKRDPVAPSVLLFPPSKEELTTGTATIVCVANKFYPSDITVTWKVDGTTQQSGIENSKTPQSPEDNTYSLSSTLSLTSAQYNSHSVYTCEVVQGSASPIVQSFNRGDC
notes: 04-093 variable regions on rabbit IGHG*02 and IGKC2*01 constant regions; also called rabbit chimeric antibody; OcHch/OcLch
B4: rat anti-human GPR20 antibody 04-093 (antibody, rat IgG2b)
heavy: EVQLVESGGGLVQPGRSLKLSCVASGFTFNNYWMTWIRQAPGKGLEWVASITNIDGSSYYPDSVKGRFTISRDNVKSTLYLQMNSLRSEDTATYYCTRGSFDYWGQGVMVTVSSAQTTAPSVYPLAPGCGDTTSSTVTLGCLVKGYFPEPVTVTWNSGALSSDVHTFPAVLQSGLYTLTSSVTSSTWPSQTVTCNVAHPASSTKVDKKVERRNGGIGHKCPTCPTCHKCPVPELLGGPSVFIFPPKPKDILLISQNAKVTCVVVDVSEEEPDVQFSWFVNNVEVHTAQTQPREEQYNSTFRVVSALPIQHQDWMSGKEFKCKVNNKALPSPIEKTISKPKGLVRKPQVYVMGPPTEQLTEQTVSLTCLTSGFLPNDIGVEWTSNGHIEKNYKNTEPVMDSDGSFFMYSKLNVERSRWDSRAPFVCSVVHEGLHNHHVEKSISRPPGK
light: DIQMTQSPSVLSASVGDRVTLNCKASQNVNKYLNWFQQKLGEPPKLLIYNTNNLQTGIPSRFSGSGSGTDYTLTISSLQPEDVATYFCFQHVSWLTFGSGTKLEIKRADAAPTVSIFPPSTEQLATGGASVVCLMNNFYPRDISVKWKIDGTERRDGVLDSVTDQDSKDSTYSMSSTLSLTKADYESHNLYTCEVVHKTSSSPVVKSFNRNEC
notes: Rat IgG2b, kappa, from a hybridoma; the full-length chains were made by linking them to known rat constant regions (IMGT IGHG2B*01, IGKC*01); also called 04-093 antibody; rat anti-GPR20 antibody 04-093

What was measured:
[1] = biological target: N-terminally FLAG-tagged human GPR20 (human) (UniProt Q99678); assay: Western blot of membrane-fraction protein, 20 µg/lane, reducing SDS-PAGE, IRDye anti-rabbit IgG
[2] = biological target: N-terminally FLAG-tagged human GPR20 (human) (UniProt Q99678); assay: Western blot of membrane fractions of transfected 293T cells, reducing SDS-PAGE
[3] = biological target: T1, GPR20 fragment peptide …; assay: BLI (Octet RED384), peptide on streptavidin sensor, antibody as analyte

Binder	binding [1]	binding [2]	binding [3]	binding ([3]; record 2)
B1	binds	binds		
B2	binds	binds		
B3	binds	binds		
B4			no binding (tested: 0.247 to 20 nM antibody)	no binding (tested: 0.247 to 20 nM antibody)

Source: patent US20200017583A1 (Daiichi Sankyo, published 2020)
